Test results from article PMC12858073.
These are yes or no findings as the source states them, for the method shown. Binding seen in cells or lysates may run through a third protein. A yes stands for co-enrichment or nearness to the bait. Other partners may have been found. One block for each molecule: values may come before it.

Chains of the proteins cited; added tags and fusions are not shown.
UniProt Q6NZF1: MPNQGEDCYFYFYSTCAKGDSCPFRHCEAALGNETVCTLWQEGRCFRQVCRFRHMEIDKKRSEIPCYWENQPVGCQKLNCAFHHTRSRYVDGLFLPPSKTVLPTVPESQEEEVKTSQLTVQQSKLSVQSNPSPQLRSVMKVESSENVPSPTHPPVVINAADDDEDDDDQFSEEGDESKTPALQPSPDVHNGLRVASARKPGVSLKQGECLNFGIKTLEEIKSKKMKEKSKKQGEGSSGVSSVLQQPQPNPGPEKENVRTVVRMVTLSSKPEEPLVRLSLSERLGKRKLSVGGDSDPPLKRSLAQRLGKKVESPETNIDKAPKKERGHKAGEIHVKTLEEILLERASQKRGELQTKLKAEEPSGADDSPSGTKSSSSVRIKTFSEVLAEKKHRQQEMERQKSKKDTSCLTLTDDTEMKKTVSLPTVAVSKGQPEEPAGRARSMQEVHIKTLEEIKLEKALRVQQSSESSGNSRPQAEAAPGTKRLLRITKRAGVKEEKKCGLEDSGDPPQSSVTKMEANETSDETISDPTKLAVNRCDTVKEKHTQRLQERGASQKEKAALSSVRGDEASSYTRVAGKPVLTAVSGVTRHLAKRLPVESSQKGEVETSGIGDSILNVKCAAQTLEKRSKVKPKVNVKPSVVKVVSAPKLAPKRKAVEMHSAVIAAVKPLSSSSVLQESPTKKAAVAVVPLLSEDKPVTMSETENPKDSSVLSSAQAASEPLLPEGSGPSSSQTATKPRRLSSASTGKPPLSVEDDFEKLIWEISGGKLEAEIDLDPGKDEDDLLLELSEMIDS
UniProt Q9CQF3: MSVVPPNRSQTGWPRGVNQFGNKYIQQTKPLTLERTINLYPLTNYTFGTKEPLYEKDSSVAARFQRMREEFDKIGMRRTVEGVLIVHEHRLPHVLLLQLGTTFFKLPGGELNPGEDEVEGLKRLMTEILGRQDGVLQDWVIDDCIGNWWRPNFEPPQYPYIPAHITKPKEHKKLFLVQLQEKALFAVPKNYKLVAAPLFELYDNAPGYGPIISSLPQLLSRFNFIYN
UniProt Q80U93: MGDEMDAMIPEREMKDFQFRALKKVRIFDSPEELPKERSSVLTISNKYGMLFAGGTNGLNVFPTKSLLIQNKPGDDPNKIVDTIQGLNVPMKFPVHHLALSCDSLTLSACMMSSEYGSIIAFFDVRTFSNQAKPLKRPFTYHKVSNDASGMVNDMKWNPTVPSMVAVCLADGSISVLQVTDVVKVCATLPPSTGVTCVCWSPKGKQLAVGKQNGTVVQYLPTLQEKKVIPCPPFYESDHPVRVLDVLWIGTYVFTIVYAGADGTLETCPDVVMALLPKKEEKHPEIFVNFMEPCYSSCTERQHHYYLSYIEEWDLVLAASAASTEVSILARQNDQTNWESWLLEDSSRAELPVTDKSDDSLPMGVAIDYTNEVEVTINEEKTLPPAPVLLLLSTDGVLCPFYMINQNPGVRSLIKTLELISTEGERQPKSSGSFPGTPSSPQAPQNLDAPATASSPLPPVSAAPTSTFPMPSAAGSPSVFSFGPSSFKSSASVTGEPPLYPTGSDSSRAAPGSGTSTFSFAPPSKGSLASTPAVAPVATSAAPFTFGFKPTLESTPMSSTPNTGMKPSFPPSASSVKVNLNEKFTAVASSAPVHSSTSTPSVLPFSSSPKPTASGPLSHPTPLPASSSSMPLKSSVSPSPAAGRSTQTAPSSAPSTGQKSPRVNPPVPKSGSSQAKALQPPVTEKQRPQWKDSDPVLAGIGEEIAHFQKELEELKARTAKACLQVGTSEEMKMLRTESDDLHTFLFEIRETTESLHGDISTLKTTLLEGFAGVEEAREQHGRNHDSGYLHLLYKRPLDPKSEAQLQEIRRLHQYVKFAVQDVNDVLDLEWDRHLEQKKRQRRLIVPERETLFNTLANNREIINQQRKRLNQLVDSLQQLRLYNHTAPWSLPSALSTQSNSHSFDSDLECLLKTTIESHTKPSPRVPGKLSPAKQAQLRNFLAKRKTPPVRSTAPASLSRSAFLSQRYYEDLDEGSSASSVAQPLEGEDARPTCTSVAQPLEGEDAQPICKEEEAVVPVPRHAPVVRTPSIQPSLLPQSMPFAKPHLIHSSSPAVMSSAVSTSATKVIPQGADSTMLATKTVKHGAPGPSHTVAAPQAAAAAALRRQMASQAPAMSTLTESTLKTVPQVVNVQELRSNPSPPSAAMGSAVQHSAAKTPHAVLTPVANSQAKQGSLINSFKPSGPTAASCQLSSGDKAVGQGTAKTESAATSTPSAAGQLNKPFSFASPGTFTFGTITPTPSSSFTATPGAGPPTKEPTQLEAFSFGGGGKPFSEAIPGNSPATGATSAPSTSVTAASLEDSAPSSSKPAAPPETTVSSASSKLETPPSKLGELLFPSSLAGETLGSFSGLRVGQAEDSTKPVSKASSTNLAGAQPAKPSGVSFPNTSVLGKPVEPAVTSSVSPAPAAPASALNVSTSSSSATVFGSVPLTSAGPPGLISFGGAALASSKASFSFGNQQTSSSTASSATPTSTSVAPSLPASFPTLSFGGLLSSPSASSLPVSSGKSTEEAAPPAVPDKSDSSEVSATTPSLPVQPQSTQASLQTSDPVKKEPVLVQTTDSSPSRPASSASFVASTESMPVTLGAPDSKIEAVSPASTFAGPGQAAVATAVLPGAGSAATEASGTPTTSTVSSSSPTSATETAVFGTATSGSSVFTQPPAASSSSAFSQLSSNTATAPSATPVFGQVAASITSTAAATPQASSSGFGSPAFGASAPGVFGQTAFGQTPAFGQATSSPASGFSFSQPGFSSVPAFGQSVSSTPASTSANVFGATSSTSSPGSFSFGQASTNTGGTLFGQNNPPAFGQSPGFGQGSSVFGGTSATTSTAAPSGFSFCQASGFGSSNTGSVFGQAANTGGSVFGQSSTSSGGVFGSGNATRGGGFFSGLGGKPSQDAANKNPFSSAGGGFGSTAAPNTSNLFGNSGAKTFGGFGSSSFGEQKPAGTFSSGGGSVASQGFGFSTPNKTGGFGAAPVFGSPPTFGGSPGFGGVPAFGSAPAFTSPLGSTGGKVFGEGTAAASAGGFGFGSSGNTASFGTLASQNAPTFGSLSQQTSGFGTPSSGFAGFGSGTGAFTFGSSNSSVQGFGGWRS
UniProt Q62167: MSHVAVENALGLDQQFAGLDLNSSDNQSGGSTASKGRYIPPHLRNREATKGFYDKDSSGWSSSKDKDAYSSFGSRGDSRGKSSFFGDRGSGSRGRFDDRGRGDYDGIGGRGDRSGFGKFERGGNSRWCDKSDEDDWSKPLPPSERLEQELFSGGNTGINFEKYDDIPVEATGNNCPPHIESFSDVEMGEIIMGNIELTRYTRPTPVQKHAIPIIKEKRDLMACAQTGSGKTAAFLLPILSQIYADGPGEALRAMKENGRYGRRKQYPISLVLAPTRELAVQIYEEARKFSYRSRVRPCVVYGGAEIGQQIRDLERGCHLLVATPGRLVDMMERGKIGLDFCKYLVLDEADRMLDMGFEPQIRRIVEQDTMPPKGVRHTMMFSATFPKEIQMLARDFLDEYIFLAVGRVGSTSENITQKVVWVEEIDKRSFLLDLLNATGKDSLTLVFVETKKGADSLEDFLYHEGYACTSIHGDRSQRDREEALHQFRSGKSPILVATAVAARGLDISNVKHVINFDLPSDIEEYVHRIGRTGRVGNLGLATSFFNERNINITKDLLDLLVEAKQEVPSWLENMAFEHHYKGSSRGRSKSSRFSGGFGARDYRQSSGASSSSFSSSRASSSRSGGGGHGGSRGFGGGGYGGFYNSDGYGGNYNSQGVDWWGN

Tests used:
Ala10 PABPN1-TurboID = molecular target: T1, Ala10 PABPN1-TurboID (UniProt Q8CCS6); test: proximity labelling; PABPN1-TurboID at near-native levels in C2C12 myotubes (doxycycline, biotin); streptavidin capture; label-free quantitative nanoLC-MS/MS against the Mus musculus database; three experiments; strict hits in at least two of three replicates and not in wild type controls
T1 sequence: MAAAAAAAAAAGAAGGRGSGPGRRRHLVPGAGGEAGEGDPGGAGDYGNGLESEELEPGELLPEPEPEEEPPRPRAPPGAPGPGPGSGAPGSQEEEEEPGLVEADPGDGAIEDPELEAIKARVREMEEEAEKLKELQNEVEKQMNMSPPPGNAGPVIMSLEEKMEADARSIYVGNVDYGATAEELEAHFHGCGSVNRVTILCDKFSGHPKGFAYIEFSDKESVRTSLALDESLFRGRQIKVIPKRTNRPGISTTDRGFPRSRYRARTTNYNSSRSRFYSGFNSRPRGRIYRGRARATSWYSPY

Ala17 PABPN1-TurboID = molecular target: T2, Ala17 PABPN1-TurboID (UniProt Q8CCS6); test: as above
T2 sequence: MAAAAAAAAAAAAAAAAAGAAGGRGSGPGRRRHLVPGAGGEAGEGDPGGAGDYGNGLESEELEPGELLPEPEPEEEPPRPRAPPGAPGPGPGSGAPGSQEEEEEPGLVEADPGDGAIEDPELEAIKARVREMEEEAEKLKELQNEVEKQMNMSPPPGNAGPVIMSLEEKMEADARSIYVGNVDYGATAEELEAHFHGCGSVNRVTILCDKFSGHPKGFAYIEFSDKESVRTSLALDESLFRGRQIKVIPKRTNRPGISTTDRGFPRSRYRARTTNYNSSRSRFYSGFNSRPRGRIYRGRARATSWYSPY

binding (Ala10 PABPN1-TurboID): binds | binding (Ala17 PABPN1-TurboID): binds
Molecule: ZC3H11A (from UniProt Q6NZF1 1-792)

binding (Ala10 PABPN1-TurboID): binds | binding (Ala17 PABPN1-TurboID): binds
Molecule: NUDT21 (from UniProt Q9CQF3 1-227)

binding (Ala10 PABPN1-TurboID): binds | binding (Ala17 PABPN1-TurboID): binds
Molecule: NUP214 (from UniProt Q80U93 1-2085)

binding (Ala10 PABPN1-TurboID): binds | binding (Ala17 PABPN1-TurboID): binds
Molecule: DDX3X (from UniProt Q62167 1-662)

binding (Ala10 PABPN1-TurboID): binds | binding (Ala17 PABPN1-TurboID): binds
Molecule: HNRNPK (from UniProt P61979 1-463)

binding (Ala10 PABPN1-TurboID): binds | binding (Ala17 PABPN1-TurboID): binds
B1: ZC3H14 (protein, UniProt Q8BJ05 1-735)
chain: MEIGTEISRKIRSAIKGKLQELGAYVDEELPDYIMVMVANKKSQDQMTEDLSLFLGNNTIRFTVWLHGVLDKLRSVTTEPSSLKSPDASIFDSHVPSNKSSFSRGDERRHEAAVPPLAVSSSRPEKRDSRVSTSSQEQKSTNVRHSYDDGASTRLMSTVKPLREPAPSEDVIDIKPEPDDLIDEDLNFVQENPLSQKKPTVTLTYGSSRPSIEIYRPPASRNADTGTHLNRLQLHPQQSSAHAAKQLDVQSSQVSEAGRLCEPPVLSSVEDTYSPFFRNNLDKMSIEDENFRKRKLPVVSSVVKVKRFSHDGEEEEEDEDYGTRIGSLSSSVSVPAKPERRPSLPPSKQANKNLILKAISEAQESVTKTTNYSAVPQKQTLPVAPRTRTSQEELLAEMVQGQNRAPRISPPVKEEEAKGDNTGKSQGTQQRQLLSRLQIDPVMVETMEMSQDYYDMESMVHADTRSFILKKPKLSEEIVVTPNQDSGMKTADALRVLSGHLMQTRDLVQPDKPASPKFIVTLDGVPSPPGYMSDQEEEMCFEGMKPVNQTSASNKGLRGLLHPQQLHLLSRQLEDPDGSFSNAEMTDLSVAQKPEKLLERCKYWPACKNGDECVYHHPISPCKAFPNCKFAEKCLFVHPNCKYDTKCTKADCPFTHMSRRASILTPKPVSSPAPSSNGQLCRYFPACKKMECPFYHPKHCRFNTQCTRPDCTFYHPTITVPPRHALKWIRPQSSE

binding (Ala10 PABPN1-TurboID): binds
B2: ASAH1 (protein, UniProt Q9WV54 19-394)
chain: QAQDVPPWTEDCRKSTYPPSGPTYRGPVPWHTINLDLPPYKRWHELLAQKAPALRILVNSITSLVNTFVPSGKLMKMVDQKLPGMIGSLPDPFGEEMRGIADVTGIPLGEIISFNIFYELFTMCTSIITEDEKGHLLHGRNMDFGIFLGWNINNNTWVVTEELKPLTVNLDFQRNNKTVFKATSFVGYVGMLTGFKPGLFSLSLNERFSINGGYLGILEWMFGRKDAQWVGFITRSVLENTTSYEEAKNTLTKTKIMAPVYFILGGKKSGEGCVITRERKESLDVYELDPKHGRWYVVQTNYDRWKNTLFIDDRRTPAKKCLNHTTQKNLSFATIYDVLSTKPVLNKLTVFTTLMDVTKGQFESHLRDCPDPCIGW

binding (Ala10 PABPN1-TurboID): binds | binding (Ala17 PABPN1-TurboID): binds
B3: XAB2 (protein, UniProt Q9DCD2 1-855)
chain: MVVMARVPRSERPDLVFEEEDLPYEEEIMRNQFSVKCWLRYIEFKQGAPKPRLNQLYERALKLLPCSYKLWYRYLKARRAQVKHRCVTDPAYEDVNNCHERAFVFMHKMPRLWLDYCQFLMDQGRVTHTRRTFDRALRALPITQHSRIWPLYLRFLRSHPLPETAVRGYRRFLKLSPESAEEYIEYLKSSDRLDEAAQRLATVVNDERFVSKAGKSNYQLWHELCDLISQNPDKVQSLNVDAIIRGGLTRFTDQLGKLWCSLADYYIRSGHFEKARDVYEEAIRTVMTVRDFTQVFDSYAQFEESMIAAKMETASELGREEEDDVDLELRLARFEQLISRRPLLLNSVLLRQNPHHVHEWHKRVALHQGRPREIINTYTEAVQTVDPFKATGKPHTLWVAFAKFYEDNGQLDDARVILEKATKVNFKQVDDLASVWCQCGELELRHENYDEALKLLRKATALPARRAEYFDGSEPVQNRVYKSLKVWSMLADLEESLGTFQSTKAVYDRILDLRIATPQIVINYAMFLEEHKYFEESFKAYERGISLFKWPNVSDIWSTYLTKFISRYGGRKLERARDLFEQALDGCPPKYAKTLYLLYAQLEEEWGLARHAMAVYDRATRAVEPAQQYDMFNIYIKRAAEIYGVTHTRGIYQKAIEVLSDEHAREMCLRFADMECKLGEIDRARAIYSFCSQICDPRTTGAFWQTWKDFEVRHGNEDTIREMLRIRRSVQATYNTQVNFMASQMLKVSGSATGTVSDLAPGQSGMDDMKLLEQRAEQLAAEAERDQPPRAQSKIFFVRSDASREELAELAQQANPEEIQLGEDEDEDEMDLEPNEVRLEQQSVPAAVFGSLKED

binding (Ala10 PABPN1-TurboID): binds | binding (Ala17 PABPN1-TurboID): binds
B4: RBM26 (protein, UniProt Q6NZN0 1-1012)
chain: MVSKMIIENFEALKSWLSKTLEPICDADPSALAKYVLALVKKDKSEKELKALCIDQLDVFLQKETQIFVEKLFDAVNTKSYLPPPEQPSSGSLKVDFLQHQEKDIKKEELTKEEEREKKFSRRLNHSPPQSSSRYRDNRSRDERKKDDRSRKRDYDRNPPRRDSYRDRYNRRRGRSRSYSRSRSRSWSKERLRDRDRDRSRTRSRSRTRSRERDLVKPKYDLDRTDPLENNYTPVSSVSNISSGHYPVPTLSSTITVIAPTHHGNNTTESWSEFHEDQVDHNSYVRPPMPKKRCRDYDEKGFCMRGDMCPFDHGSDPVVVEDVNLPGMLPFPAQPPVVEGPPPPGLPPPPPILTPPPVNLRPPVPPPGPLPPSLPPVTGPPPPLPPLQPSGMDAPPNSATSSVPTVVTTGIHHQPPPAPPSLFTAVFVLPDTYDTDGYNPEAPSITNTSRPMYRHRVHAQRPNLIGLTSGDMDLPPREKPPNKSSMRIVVDSESRKRTIGSGEPGVSTKKTWFDKPNFNRTNSPGFQKKVQFGNENTKLELRKVPPELNNISKLNEHFSRFGTLVNLQVAYNGDPEGALIQFATYEEAKKAISSTEAVLNNRFIKVYWHREGTTQQLQTTSPKVIQPLVQQPILPVVKQSVKERLGPVPSATTEPAEAQSATSELPQNVTKLSVKDRLGFVSKPSVSATEKVLSTSTGLTKTVYNPAALKAAQKTLSVSTPAVDNNEAQKKKQEALKLQQDVRKRKQEILEKHIETQKMLISKLEKNKTMKSEDKAEIMKTLEILTKNITKLKDEVKSTSPGRCLPKSIKTKTQMQKELLDTELDLYKKMQAGEEVTELRRKYTELQLEAAKRGILSSGRGRGIHTRGRGTAHGRGRGRGRGRGVPGHAVVDHRPRALEISAFTESDREDLLPHFAQYGEIEDCQIDDASLHAIITFKTRAEAEAAAIHGARFKGQDLKLAWNKPIANMSAVDTEEAEPDEEEFQEESLVDDSLLQDDDEEEEDNESRSWRR

binding (Ala10 PABPN1-TurboID): binds | binding (Ala17 PABPN1-TurboID): binds
B5: ZC3HAV1 (protein, UniProt Q3UPF5 1-996)
chain: MTDPEVFCFITKILCAHGGRMTLEELLGEISLPEAQLYELLKAAGPDRFVLLETGDQAGITRSVVATTRARVCRRKYCQRPCDSLHLCKLNLLGRCHYAQSQRNLCKYSHDVLSEQNFQVLKNHELSGLNQEELAVLLVQSDPFFMPEICKSYKGEGRKQICGQPQPCERLHICEHFTRGNCSYLNCLRSHNLMDRKVLAIMREHGLSSDVVQNIQDICNNKHTRRNPPSMRAPHPHRRGGAHRDRSKSRDRFHHNSLEVLSTVSPLGSGPPSPDVTGCKDPLEDVSADVTQKFKYLGTQDRAQLSSVSSKAAGVRGPSQMRASQEFLEDGDPDGLFSRNRSDSSTSRTSAAGFPLVAAQRNEAGAMKMGMPSGHHVEVKGKNEDIDRVPFLNSYIDGVTMEEATVSGILGKRATDNGLEEMILSSNHQKSVAKTQDPQTAGRITDSGQDTAFLHSKYEENPAWPGTSTHNGPNGFSQIMDETPNVSKSSPTGFGIKSAVTGGKEAVYSGVQSLRSHVLAMPGETTTPVQGSNRLPPSPLSSSTSHRVAASGSPGKSSTHASVSPASEPSRMMMMMSDPAEYSLCYIVNPVSPRMDDHGLKEICLDHLYRGCQQVNCNKNHFHLPYRWQLFILPTWMDFQDMEYIERAYCDPQIEIIVIEKHRINFKKMTCDSYPIRRLSTPSFVEKTLNSVFTTKWLWYWRNELNEYTQYGHESPSHTSSEINSAYLESFFHSCPRGVLQFHAGSQNYELSFQGMIQTNIASKTQRHVVRRPVFVSSKDVEQKRRGPDHQPVMPQADALTLFSSPQRNASTVSSNEYEFIELNNQDEEYAKISEQFKASMKQFKIVTIKRIWNQKLWDTFERKKQKMKNKTEMFLFHAVGRIHMDYICKNNFEWILHGNREIRYGKGNYFTKEAMYSHKSCSYDSRGTVMFVARVLVGSVIEGNMTLSSPPALYDSCVDTRLNPSVFVIFRKEQIYPEYVIEYMELEKEKGCIIS

binding (Ala10 PABPN1-TurboID): binds | binding (Ala17 PABPN1-TurboID): binds
B6: SYNCRIP (protein, UniProt Q7TMK9 1-623)
chain: MATEHVNGNGTEEPMDTTSAVIHSENFQTLLDAGLPQKVAEKLDEIYVAGLVAHSDLDERAIEALKEFNEDGALAVLQQFKDSDLSHVQNKSAFLCGVMKTYRQREKQGTKVADSSKGPDEAKIKALLERTGYTLDVTTGQRKYGGPPPDSVYSGQQPSVGTEIFVGKIPRDLFEDELVPLFEKAGPIWDLRLMMDPLTGLNRGYAFVTFCTKEAAQEAVKLYNNHEIRSGKHIGVCISVANNRLFVGSIPKSKTKEQILEEFSKVTEGLTDVILYHQPDDKKKNRGFCFLEYEDHKTAAQARRRLMSGKVKVWGNVGTVEWADPIEDPDPEVMAKVKVLFVRNLANTVTEEILEKSFSQFGKLERVKKLKDYAFIHFDERDGAVKAMEEMNGKDLEGENIEIVFAKPPDQKRKERKAQRQAAKNQMYDDYYYYGPPHMPPPTRGRGRGGRGGYGYPPDYYGYEDYYDYYGYDYHNYRGGYEDPYYGYEDFQVGARGRGGRGARGAAPSRGRGAAPPRGRAGYSQRGGPGSARGVRGARGGAQQQRGRGVRGARGGRGGNVGGKRKADGYNQPDTKRRQTNNQNWGSQPIAQQPLQGGDHSGNYGYKSENQEFYQDTFGQQWK
